Results are given in words; binding and its absence hold for the method and conditions named. In cells and extracts the contact can be indirect. Some results given as binding are weak or reduced against the parent protein; the word gives no strength.
Assays:
[1] = molecular target: TGFβ inducible early gene-1 (TIEG1), full length (1-480 aa), Flag-tagged (UniProt Q13118); assay: co-IP; U2OS cells co-transfected with TIEG1 and Runx2 expression constructs for 24 hours, lysed in RIPA buffer; immunoprecipitated at 4°C overnight with rabbit IgG, Runx2 M-70 antibody or TIEG1 polyclonal antibody #992, protein G beads; western blotting with reciprocal antibodies
Runx2 = Runx2 (UniProt Q08775); assay: as above

Amino acid sequences for entries named in this document (tags omitted).
UniProt Q13118: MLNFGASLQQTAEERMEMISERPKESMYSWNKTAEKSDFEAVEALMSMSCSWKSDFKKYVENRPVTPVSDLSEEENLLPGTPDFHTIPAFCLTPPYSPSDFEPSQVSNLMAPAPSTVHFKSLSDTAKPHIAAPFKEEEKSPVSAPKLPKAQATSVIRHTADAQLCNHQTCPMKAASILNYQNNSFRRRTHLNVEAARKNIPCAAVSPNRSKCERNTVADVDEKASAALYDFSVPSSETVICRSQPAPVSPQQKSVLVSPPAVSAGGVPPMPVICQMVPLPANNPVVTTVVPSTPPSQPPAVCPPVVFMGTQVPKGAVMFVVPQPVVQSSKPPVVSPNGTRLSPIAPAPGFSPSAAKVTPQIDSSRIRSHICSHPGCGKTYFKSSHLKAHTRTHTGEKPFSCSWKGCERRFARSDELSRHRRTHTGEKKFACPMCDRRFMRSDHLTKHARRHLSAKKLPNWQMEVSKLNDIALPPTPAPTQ
UniProt Q08775: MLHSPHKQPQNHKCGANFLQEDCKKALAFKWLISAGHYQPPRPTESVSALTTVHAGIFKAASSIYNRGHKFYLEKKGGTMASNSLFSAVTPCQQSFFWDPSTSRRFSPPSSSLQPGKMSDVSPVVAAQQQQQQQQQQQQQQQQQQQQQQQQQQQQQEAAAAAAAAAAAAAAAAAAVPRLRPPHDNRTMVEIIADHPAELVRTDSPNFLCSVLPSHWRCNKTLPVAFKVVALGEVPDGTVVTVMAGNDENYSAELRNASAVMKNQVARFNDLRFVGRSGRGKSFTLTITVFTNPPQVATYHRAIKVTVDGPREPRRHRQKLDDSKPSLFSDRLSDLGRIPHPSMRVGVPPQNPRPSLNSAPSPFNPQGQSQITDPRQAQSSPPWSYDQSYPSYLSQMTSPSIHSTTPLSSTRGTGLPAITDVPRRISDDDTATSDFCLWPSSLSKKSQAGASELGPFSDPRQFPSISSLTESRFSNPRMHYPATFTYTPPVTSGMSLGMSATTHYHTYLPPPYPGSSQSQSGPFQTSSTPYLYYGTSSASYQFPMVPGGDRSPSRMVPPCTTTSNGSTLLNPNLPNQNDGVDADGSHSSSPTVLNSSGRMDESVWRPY

binding [1]	binding (Runx2)	Substance
binds		Runx2 (from UniProt Q08775 1-607)
	binds	TGFβ inducible early gene-1 (TIEG1), full length (1-480 aa), Flag-tagged (from UniProt Q13118 1-480)

Source: PMC3084845
